Results published in PubChem BioAssay AID1259415 (National Center for Advancing Translational Sciences (NCATS), 2018).
About 18,000 (4.4%) of roughly 410,000 compounds were called active. The inconclusive results got no clear call from the source; some entries with a clear call stand among them for comparison. Cut-off read from the data, not from the text of the source: active = activity change below about -60%; inconclusive = no clear call, values can overlap the other calls; inactive = above about -39%.

Assay: qHTS Assay for inhibitors of the human cytomegalovirus (HCMV)
Conditions: HFF cells, HCMV-luciferase reporter, 72 h; at 57.5 µM; active compounds read low
Method in brief: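 Human foreskin fibroblasts infected with luciferase-reporter HCMV at MOI 1 PFU/cell, compounds at two doses. Luciferase measured 72 h post infection; normalized to buffer-only basal and Salinomycin (10uM) controls.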
% is set by controls: 0 for no effect and ±100 for the full control effect.

| SMILES | activity change, negative = inhibition |
| --- | --- |
| C=CCSc1nc2sc3c(c2c(=O)[nH]1)CC(C)(CC)OC3 (centres undefined) | inconclusive: -43% |
| O=C(c1ccc(Cl)c(S(=O)(=O)N2CCCCCC2)c1)N1CCN(c2ccccn2)CC1 | active: -81.2% |
| c1ccc2[nH]c(CSc3nc4ccccc4o3)nc2c1 | inconclusive: -58.3% |
| CCOc1ccc(-n2c(-c3ccc(Br)cc3)c[n+]3c2CCCCC3)cc1 | active: -98.9% |
| COc1ccc(CCNCc2ccc3c(c2)n(C)c(=O)n3C)cc1OC | inactive: -3.17% |
| Cc1ccc(NC(=O)c2ccc(S(=O)(=O)N3CCOCC3)cc2)cc1 | inconclusive: -45.2% |
| CSc1ccc(Cn2c(C)c(C(=O)NCc3cccc(C)c3)sc2=O)cc1 | active: -66.9% |
| Cc1ccccc1NC(=S)N(CCCN1CCC(C)CC1)Cc1ccco1 | inactive: 4.14% |
| CCN1CCN(c2ccc(NC(=O)COc3ccc([N+](=O)[O-])cc3)cc2)CC1 | inconclusive: -46.7% |
| CN(C(=O)c1ccc(NC(=O)Cc2ccc(NC(=O)C3CCN(C(=O)C4CC4)CC3)cc2)cc1)C1CC1 | inconclusive: -45.7% |
| COc1ccc2c(c1)C(=NNC(=O)c1ccccn1)c1cc(OC)ccc1-2 | inconclusive: -51.7% |
| N#Cc1ccc(C(=O)Nc2cc(S(=O)(=O)Nc3ccc(Cl)cc3)ccc2N2CCCCC2)cc1 | inconclusive: -54.9% |
| C=CCn1c(=O)c(C(=O)NCCc2ccc(Cl)cc2)c(O)c2cc(OC)c(OC)cc21 | inactive: -8.86% |
| CC(=O)Nc1nc2ccc(Br)cc2s1 | inactive: 31.4% |
| C/C(=N\Nc1ccc(F)cc1F)c1ccccc1O | active: -68.9% |
| CCc1nc(SC)ncc1C(=O)N1CCN(c2cc(C)ccc2C)CC1 | inactive: 5.44% |
| CN(C)C1(CNC(=O)Cc2ccccc2F)CCCCC1 | inconclusive: -40.3% |
| CC1(c2ccc3ccccc3c2)NC(=O)N(CC(=O)N2CCN(S(=O)(=O)c3ccccc3F)CC2)C1=O (centres undefined) | inconclusive: -56.8% |
| CC(C)(C)NC(=O)COC(=O)CCC(=O)c1cccs1 | inactive: -10.2% |
| O=C(NC1CCCCC1)C(c1ccc(F)cc1)N(Cc1ccco1)C(=O)c1ccccn1 (centres undefined) | inconclusive: -44% |
| Fc1ccc(NC(=S)NCCc2ccc(Cl)cc2)cc1 | active: -68.8% |
| CC(=O)c1ccc(N2CCN(C(=O)c3cc4c(C)nc5ccccc5c4o3)CC2)cc1 | inconclusive: -47% |
| CCCCCN1C=CC(=C2C(=O)c3ccccc3C2=O)C=C1 | active: -90.4% |
| COc1ccc(-c2nc(CNS(=O)(=O)c3cccc(F)c3)cs2)cc1 | inconclusive: -58.9% |

Reprinted from the entries so far for reference:

| SMILES | activity change, negative = inhibition |
| --- | --- |
| C/C(=N\Nc1ccc(F)cc1F)c1ccccc1O | active: -68.9% |
| CCc1nc(SC)ncc1C(=O)N1CCN(c2cc(C)ccc2C)CC1 | inactive: 5.44% |
